Laboratory results: patent US20200000871A1, “B-1A LYMPHOCYTE AND/OR MACROPHAGE TARGETING AND ACTIVATION TO TREAT MEDICAL CONDITIONS WITH INFLAMMATORY OR AUTOIMMUNE COMPONENTS” (THE BOARD OF TRUSTEES OF THE LELAND STANFORD JUNIOR …, priority 2015, published 2020)
Not every detail of the peptide structures is certain; ends, links or a residue may be inferred. Where no end group is shown, it is not given here.

Assays:
[1] = system: PBMCs; assay: Type 1 IFN response and cytokine production in PBMCs of treated mice; conditions: mouse, in vivo
[2] = system: splenocytes; assay: Cytokine secretion by splenocytes of treated EAE mice stimulated with MOG35-55 in vitro; type: cell-based; conditions: mice treated 10 μg intranasally; 0, 5, 10, 20 μg/ml MOG35-55; compared to control
[3] = Fibril formation as measured by thioflavin T; type: physicochemical
[4] = system: μMT mice with EAE; assay: EAE in B cell-deficient μMT mice, with or without adoptive transfer of B-1a lymphocytes; type: in vivo; conditions: 3.5×10^5 B-1a cells i.p. day 10, 10 μg daily
Experimental: Induction of active EAE in mice by immunization with MOG and adjuvant. EAE was induced in female wild type C57Bl/6 mice or μMT and IL-10 deficient mice on C57B/6 background (Jackson Laboratories) by procedures previously described. Briefly, EAE was induced at 9 weeks of age by subcutaneous immunization in the flank with an emulsion containing 200 μg myelin oligodendrocyte glycoprotein35-55 (MOG35-55; […] (SEQ ID NO: 1065)) in saline and an equal volume of complete Freund's adjuvant containing […] mycobacterium tuberculosis H37RA (Disco Laboratories). All mice were given 400 ng of pertussis toxin (List Biological) intraperitoneal (i.p.) at 0 and 48 h post-immunization. The signs of neurological impairment were scored as follows: 0, no clinical disease; 1, tail weakness; 2, hindlimb weakness; 3, complete hindlimb paralysis; 4, hindlimb paralysis and some forelimb weakness; 5, moribund or dead. […] For intranasal inoculation, 10 μg of Amylin 28-33 in 10 μl PBS was gradually released into the nostrils of anesthetized mice. All animal protocols were approved by institutional IACUC.
B-1a lymphocytes were purified by cell sorting of peritoneal cells from wild type C57Bl/6 mice. […] Mice were examined daily for clinical signs of EAE and were scored on a five point scale described above.

[5] = system: IL-10 secreting B-1a lymphocytes and LPMs; assay: Flow cytometry of IL-10 reporter mice (peritoneum, spleen, lymph nodes); type: in vivo, IL-10 reporter C57BL/6 mice
[6] = system: B-1a lymphocytes and peritoneal MΦs (SPM, LPM); assay: Differential gene expression (microarray, qPCR) in sorted B-1a lymphocytes and peritoneal MΦs after i.p. injection; type: in vivo, C57BL/6 mice; conditions: 10 μg i.p., cells isolated 30-40 minutes after injection
Experimental: Total RNA was extracted from FACS purified B-1a lymphocytes and peritoneal MΦs pooled from 3-6 C57BL/6 female mice injected with 10 μg of LPS, Tau 623-628, Amylin 28-33, or PBS using Trizol reagent and the Qiagen RNeasy micro kit. First strand cDNA was synthesized with 30-50 ng of total RNA using Superscript III first strand synthesis supermix for qRT-PCR. QPCR assays were performed using the 7900HT Fast Real Time PCR System (Applied Biosystems), and the Taqman Gene Expression Arrays (Applied Biosystems) using commercially available primers (ABI). All assays were performed according to manufacturer's instructions. The comparative Ct method for relative quantification (ΔΔCt) was used to compare gene expression. […]
Gene expression changes associated with treatment with LPS, Amylin 28-33, and Tau 623-628, were quantified using a microarray (SurePrint G3 Mouse; Agilent Technologies). […] Analysis and quantitation of the data were done using GeneSpring and Ingenuity software.
To confirm and increase the understanding of how the fibrils are activating the peritoneal cells, differential gene induction in purified B-1a and LPMs was analyzed. […] B-1a lymphocytes (CD19^hiCD5^+CD23^−) and LPMs (CD11b^hi MΦs) from the four groups of three mice were sorted into Trizol, RNA extracted, and gene expression measured using a murine Agilent whole genome expression microchip. […]

SSTNVG [Amylin 28-33, SSTNVG]
IFNγ, TNFα and IL-6 production by PBMCs [1]: reducing IFNγ, TNFα, and IL-6 production by PBMCs | type 1 IFN induction [1]: induced minimal amounts of type 1 IFN | secretion of IL-6, IFNγ, IL-2 and IL-17 by splenocytes in response to MOG35-55 [2]: reduction in secretion of proinflammatory cytokines | fibril formation in physiological buffers [3]: did not form measurable amounts of fibrils | paralytic signs of EAE in μMT mice after adoptive transfer of B-1a lymphocytes [4]: exhibited reduced paralytic signs of EAE | B-1a lymphocyte number and IL-10 expression in spleen ([5]; 24 hours after injection): apparent reduction in both numbers and IL-10 expression | number of IL-10+ B-1a lymphocytes and LPMs in the peritoneum ([5]; after 24 hours): decrease | B-1a lymphocytes in pooled lymph nodes ([5]; inguinal and axillary lymph nodes pooled): increased the percentage of B-1a lymphocytes in the lymph node | IL-10 level / secretion (GFP median fluorescence intensity) ([5]; peritoneal cells, 10 μg): did not increase IL-10 secretion | IL-10 expression of B-1a lymphocytes in lymph node ([5]; pooled lymph nodes): increase in the amount of IL-10 expression | pattern of gene expression (microarray heatmap) [6]: induce a different pattern of gene expression than LPS
